{"source": "patent US20220175926A1", "about": "“TARGETED SYNERGISTIC CANCER IMMUNOTHERAPY” (The Brigham and Women's Hospital, Inc., priority 2019, published 2022)", "assay": "ROS generation with sonosensitizer and ultrasound (DCFH fluorescent probe)", "data": [{"smiles": "CC1(C)C(/C=C/C=C/C=C/C=C2\\N(CCCCS(=O)(=O)O)c3ccc4ccccc4c3C2(C)C)=[N+](CCCCS(=O)(=O)[O-])c2ccc3ccccc3c21", "note": "[ICG, indocyanine green]", "values": [{"measurement": "ROS levels", "setting": "agent alone, no ultrasound", "value": "background levels of ROS"}, {"measurement": "ROS induced relative to ultrasound alone", "setting": "sonosensitizer plus ultrasound, same ultrasound condition", "value": "over 2.5 fold"}]}]}
